{"sequences": {"note": "Chains of the proteins cited; added tags and fusions are not shown. Lines headed by an entry give the natural chain unless they say otherwise; changes in a name come on top.", "UniProt Q9Y0Y5": "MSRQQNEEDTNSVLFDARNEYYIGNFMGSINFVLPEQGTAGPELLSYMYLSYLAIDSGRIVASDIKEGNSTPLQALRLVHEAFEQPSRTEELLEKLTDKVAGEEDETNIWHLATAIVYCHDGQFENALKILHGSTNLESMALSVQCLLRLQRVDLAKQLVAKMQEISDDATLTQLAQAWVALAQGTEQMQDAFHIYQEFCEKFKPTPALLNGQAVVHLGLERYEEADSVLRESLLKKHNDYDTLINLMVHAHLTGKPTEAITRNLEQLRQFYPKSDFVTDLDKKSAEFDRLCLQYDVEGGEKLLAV"}, "source": "paper doi:10.1101/232272", "molecules": {"B1": {"name": "Gorab (CG33052 gene product), endogenous in embryos (protein, UniProt Q8IQQ4 1-338)", "chain": "MTEKFNGFSHDEILKITGVKEGGVGKRPASLEAAKPALRIQPGIRRMPDKIFRQADQLRKQQQQQPQQPIQKPDVAKKTKSGTATPTEKPPTPTPAAEDDVANGSLNLDRPLSDSLIEALYHGNATARDKKTPATYADAETTSTDDSSILKISGGDSQTTSSTDDGSILPSTQDTSPRERLNTDSPFKGISLKDFEQHRRMIEEQNKQKKQMLYQAIEQHTQKTAAESRKIEEIRHELSKLESDLAVDVALLRKQIDNACIHFANVEKQYVKIEAQFLRAKIELHNASEKKELLTEHLCTVIAHNEDRKAQKLTELMQKVGLSPTDDCQPIDLTQQSP"}, "B2": {"name": "Gorab (CG33052 gene product), endogenous in cultured cells (protein, UniProt Q8IQQ4 1-338)", "chain": "B1 chain"}, "B3": {"name": "Sas6, endogenous in embryos (protein, UniProt Q9VAC8 1-472)", "chain": "MWPPGSEDSYSAKMDYGKSVVNILPSVEMLVNFNGEMTRSSKRSCLLYAERVDFKELLQLRLTEKSDQRRMYITTVDSASFQDLKQDQSLNVSFSGFIDNVVRMLKDCQSGKLELHLTTRDQNLSSGREVHDYYLQFVEIRSFKNLVHLSLPCRSAPLNTVLFYINSMLEASHKKQYILEQSMQQMQAEINAQRAHAERLTTENTNIREALAENTRILEEKHAAEVHQYQEKLSKINEQRSNELERNRRAISGFQAQLDKASLEKAELKSAQEQAEKRCQTLSEELSCCKARVCTLKEQNDKLHGDVANIRKHERKLEYKIEDLKQHTVELQEHIQKGNKEKANIAAELEAEKKILHTKRQALEMASEEISKANQIIVKQSQELLNLKKTIAWRTEVALQQEKAVQAKESLLSLRENELREARITIEKLREEIPQQLQSMRNFAQGLEQKYSKQILILKERLAIPTGKENRR"}, "B4": {"name": "Sas6, endogenous in cultured cells (protein, UniProt Q9VAC8 1-472)", "chain": "B3 chain"}, "B5": {"name": "β’COP subunit of the COPI coatomer complex (protein, UniProt O62621 1-914)", "chain": "MPLKLDIKRRLTSRSDRVKCVDLHPAEPWMLCALYNGHVHIMNYENQQMVKDFEVCDVPVRSARFVARKNWILTGSDDMQIRVFNYNTLEKVHSFEAHSDYLRCIAVHPTQPLVLTSSDDMLIKLWNWEKMWACQRVFEGHTHYVMQIVFNPKDNNTFASASLDRTVKVWQLGSNFANFTLEGHEKGVNCVDYYHGGDKPYLISGADDRLVKIWDYQNKTCVQTLEGHAQNISAVCFHPELPIVLTGSEDGTVRIWHSGTYRLETCLNYGFERVWTISSMRGTNNVALGYDEGSIIIKVGREEPAMSMDVVGSKIIWAKHSEMQQVNLKTIADGTEIKDGERLPVATKDMGACEIYPQTIAHNPNGRFVVVCGDGEYIIYTSMALRNKAFGSAQEFVWALESNEYAIRENNGTVRLFRNFKERKSFTPEYGAESIYGGYYFGVKTSSGLAFYDWETLQLVRRIEVQPKNVFWNESGSLVCLATDDSYFVLGVDTAQVANAVETKEGLEDDGVESAFNVLGEVSECVKTGLWVGDCFIYTNSVNRINYYVGGEIVTVSHLDRTMYLLGYVPKDNRIYLGDKELNVISFCLQLSVLEYQTAVMRRDFERADVVLPTIPKEHRTRVAHFLEKQGFKSQALQVSTDADHKFDLALQIGDLEIALKLARESENSQKWSQLADVASSKNNMSLVKECMQKANDLSGLLLLSTASGDAQLLEVVGAAGSAQGHHNLAFLSAFLRSDVERCLEILIETNRLPEAAFFARTYLPSQMSRIVELWREKLGKVNEKAGQSLADPAQYTNLFPGLGDALRVEQHLQEERARKAPARLAANLPLNSERHPLQELFAAEQGAAGQHLEEKVKPAYVPAQAVVSSSQVAEPTSAADDDDDLDLEIDGITLDDNIDTTDVNLDDDFLSDD"}, "B6": {"name": "γCOP subunit of the COPI coatomer complex (protein, UniProt Q8I0G5 1-883)", "chain": "MNYFSLTSHKKHRGHPSAGPSNAYQNLEKTSVLQETRTFNETPVNPRKCIHILTKILYLINQGEQLVAREATDCFFAMTKLFQSKDVVLRRMVYLGIKELSSIAEDVIIVTSSLTKDMTGKEDLYRAAAIRALCSITDNTMLQAVERYMKQCIVDKNAAVSCAALVSSLRLANTAGDVVKRWANEAQEALNSDNIMVQYHALGLLYHIRKSDRLAVSKLVNKLTRGSLKSPYAVCMLIRIACKLIEEEDIPSEELSDSPLFTFIESCLRHKSEMVIYEAAHAIVNLKNTNPRMLSPAFSILQLFCSSPKATLRFAAVRTLNKVAMTHPAAVTTCNLDLEGLITDSNRSVATLAITTLLKTGAESSVERLMKQISTFVAEISDEFKVVVVQAICALCTKYPRKHTVLMNFLSGMLREEGGLEYKTSIVDTIITIIEENADAKESGLSHLCEFIEDCEHVSLAVRILHLLGKEGPFAATPSKYIRFIYNRVILESPIVRAAAVTAMAQFGASCPALLSNILVLLGRCQMDPDDEVRDRATYYLSILNSERPELYKNYIIERENCSLALLEKSLVEHLNGDVDTRFDISIVPKAAIVKPVIANDVMLVTSSAPRPPKITREEESAARLAQLPGIQVLGPIHRSTAPIQLTESETEYTVQCIKHIFGQHVVFQFDCLNTLSDQILENVRVELTLPEGFTTRAVIPCPKLPYNDLQTTFVIVEFPPDAANSIATFGATLRFVVKDCDPNTGEPESEEGYDDEYMLEDLELTVADQIQKTRKNNFQVSWDAADSEEWLQAEDTFVLSAVTTLQDAVNTIVKILGLGAANLSENVPEGTHLHTLLCSGTFRGGAEILVRAKLALSEGVTLNLTVRSTDQDVAELITAAIG"}, "B7": {"name": "βCOP subunit of the COPI coatomer complex (protein, UniProt P45437 1-964)", "chain": "MTSQVPCYTIINSPDLEVTNEMQLKRDLEKGDTNVKIETLKRVIKLLLNGERYPGLIMTIIRFVLPVQNHTIKKLLLIFWEIVPKTSADGKLLQEMILVCDAYRKDLQHPNEFLRGSTLRFLCKLKEPELLEPLMPAIRACLDHRHSYVRRNAVLAIFTIYKNFDWLVPDGPELIASFLDTQQDMSCKRNAFLMLLHADQERALNYLASCIDQVHTFGDILQLVIVELIYKVCHANPAERSRFIRCIYNLLNSSSNAVRYESAGTLITLSLAPTAIKAAASCYIELVVKESDNNVKLIVLDRLVAMKEHEGMEKVMQDLVMDVLRVLAAPDIEVRRKTLALALDLVYSRNIGEMVLVLKKEVAKTHNVEHEDTGKYRQLLVRTLHTCSIKFPDVAANVIPVLVEFLSDTNELAAADVLIFIREAIQKFPALRALIIEHLIEAFPQIKSSKIHRAAVWILGEYVEGSQILEVIAVIQQTLGEVPMVEAEQRRLAGDQTEEQKQQQGSAGGNAAGSAAEGSGSGNASNKVTSDGTYATQSAYSLAPVAKAEKRPPLRQYLMDGDFFIGAALSATLTKLALRYAELETEARAQNRLTTQVMLIMSSILHLGKSGFPSKPITNDDTDRIFVCLRTLSERTPEAISVFTLYCREALGKMLDAQHDEDQRMLKEKQKATAKVQPDDPVLFAQLSNGRDNQLGENVFESSLNQALAGSKNAQLSDVASPNSKLNKVTQLTGFSDPVYAEAYVNVNQYDIVLDVLIVNQTNDTLQNCTLELATLGDLKLVERPHPVVLAPHDFCNIKANVKVSSTENGIIFGNIVYETALNTNVVVLNTIHIDIMDYIIPASCTDTEFRQMWQDFEWENKVTVNTSFTDLHEYLKHLLKSTNMKCLTPEKALSGQCGFMAANMYAKSIFGENALANLSIEKPVDDPDSKVTGHIRIRAKSQGMALSLGDKISSSQKQSVQAA"}}, "assay_in_all_cases": "affinity purification with mass spectrometry", "key": {"[1]": {"target": "T1, GFP-Gorab in D-Mel cells (poly-Ubiquitin-GFP-Gorab or pMT-GFP-Gorab) (Drosophila) (UniProt Q8IQQ4)", "T1 sequence": "B1 chain"}, "[2]": {"target": "T2, GFP-tagged Sas6 (polyUbiquitin-Sas6-GFP transgene) (Drosophila) (UniProt Q9VAC8)", "T2 sequence": "B3 chain"}, "[3]": {"target": "T3, Protein-A-tagged Sas6 (Drosophila) (UniProt Q9VAC8)", "T3 sequence": "B3 chain"}, "[4]": {"target": "T4, GFP-Gorab (poly-Ubiquitin-GFP-Gorab) in embryos (Drosophila) (UniProt Q8IQQ4)", "T4 sequence": "B1 chain"}, "[5]": {"target": "T1, GFP-Gorab in D-Mel cells (poly-Ubiquitin-GFP-Gorab or pMT-GFP-Gorab) (Drosophila)", "remark": "listed apart in the source"}}, "note": "Read-outs that look alike come from different tables or passages of the source. Results are given in words; binding and its absence hold for the method and conditions named. Binding seen in cells or lysates may run through a third protein. A yes stands for co-enrichment or nearness to the bait. Other partners may have been found. Sequences can lack the tags named with a protein.", "data": [{"molecule": "εCOP subunit of the COPI coatomer complex (from UniProt Q9Y0Y5)", "values": [{"measurement": "binding", "setting": "[1]", "result": "binds"}]}, {"molecule": "αCOP subunit of the COPI coatomer complex (Drosophila (endogenous in D-Mel cells))", "values": [{"measurement": "binding", "setting": "[1]", "result": "binds"}]}, {"molecule": "B1", "values": [{"measurement": "binding", "setting": "[2]", "result": "binds"}]}, {"molecule": "B2", "values": [{"measurement": "binding", "setting": "[3]", "result": "binds"}]}, {"molecule": "B3", "values": [{"measurement": "binding", "setting": "[4]", "result": "binds"}]}, {"molecule": "B4", "values": [{"measurement": "binding", "setting": "[5]", "result": "binds"}]}, {"molecule": "B5", "values": [{"measurement": "binding", "setting": "[5]", "result": "binds"}]}, {"molecule": "B6", "values": [{"measurement": "binding", "setting": "[5]", "result": "binds"}]}, {"molecule": "B7", "values": [{"measurement": "binding", "setting": "[5]", "result": "binds"}]}]}
